Reference: article PMC3972117
Results are given in words; binding and its absence hold for the method and conditions named. In cells and extracts the contact can be indirect. Here binding means that the protein was enriched with, or labelled near, the bait; the list need not be complete.

The chains behind the UniProt entries cited, without tags or fusion partners.
UniProt P61073: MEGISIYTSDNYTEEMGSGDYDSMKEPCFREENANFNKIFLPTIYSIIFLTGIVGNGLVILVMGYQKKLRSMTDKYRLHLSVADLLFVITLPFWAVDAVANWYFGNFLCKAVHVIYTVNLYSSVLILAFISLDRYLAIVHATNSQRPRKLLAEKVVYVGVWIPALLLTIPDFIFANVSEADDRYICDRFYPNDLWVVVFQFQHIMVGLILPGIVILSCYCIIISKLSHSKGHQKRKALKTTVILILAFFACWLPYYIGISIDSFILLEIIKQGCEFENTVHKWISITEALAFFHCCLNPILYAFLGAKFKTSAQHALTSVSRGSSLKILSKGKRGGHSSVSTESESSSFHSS
UniProt P41597: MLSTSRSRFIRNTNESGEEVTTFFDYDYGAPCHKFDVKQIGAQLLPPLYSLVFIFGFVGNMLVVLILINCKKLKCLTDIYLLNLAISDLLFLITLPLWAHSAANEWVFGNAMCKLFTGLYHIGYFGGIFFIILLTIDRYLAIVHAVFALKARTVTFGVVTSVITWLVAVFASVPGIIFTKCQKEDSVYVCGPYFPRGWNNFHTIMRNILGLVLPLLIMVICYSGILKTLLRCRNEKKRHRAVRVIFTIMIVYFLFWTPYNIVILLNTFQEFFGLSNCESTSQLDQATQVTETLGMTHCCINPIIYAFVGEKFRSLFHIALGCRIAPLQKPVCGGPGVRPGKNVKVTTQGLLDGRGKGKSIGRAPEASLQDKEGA

Target: CXCR4-BirA (human CXCR4 with the E. coli biotin ligase BirA fused to its N terminus) (human) (UniProt P61073)
Experiment: proximity labelling; competition: CXCR4-BirA and CCR2-AP co-expressed in RPE cells with or without CCR2-no AP; biotinylation of CCR2-AP read by flow cytometry

With “CCR2-no AP (CCR2 construct lacking the fused acceptor peptide) (from UniProt P41597 1-374) (receptor)” the binding was “binds”.
